Experimental findings from article PMC9107680 are described below.

Amino acid sequences for entries named in this document (tags omitted).
UniProt P60484: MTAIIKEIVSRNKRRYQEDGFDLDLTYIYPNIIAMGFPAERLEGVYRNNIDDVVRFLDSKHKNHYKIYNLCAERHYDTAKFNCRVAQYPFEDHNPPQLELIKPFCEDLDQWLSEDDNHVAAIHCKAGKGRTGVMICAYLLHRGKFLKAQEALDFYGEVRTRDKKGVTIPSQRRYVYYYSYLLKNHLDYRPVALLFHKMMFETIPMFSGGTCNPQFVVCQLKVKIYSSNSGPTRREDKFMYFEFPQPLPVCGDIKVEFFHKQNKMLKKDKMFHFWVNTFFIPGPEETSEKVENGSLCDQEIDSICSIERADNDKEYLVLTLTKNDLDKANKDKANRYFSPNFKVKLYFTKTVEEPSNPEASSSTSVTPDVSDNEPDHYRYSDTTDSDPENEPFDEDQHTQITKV
UniProt P32019: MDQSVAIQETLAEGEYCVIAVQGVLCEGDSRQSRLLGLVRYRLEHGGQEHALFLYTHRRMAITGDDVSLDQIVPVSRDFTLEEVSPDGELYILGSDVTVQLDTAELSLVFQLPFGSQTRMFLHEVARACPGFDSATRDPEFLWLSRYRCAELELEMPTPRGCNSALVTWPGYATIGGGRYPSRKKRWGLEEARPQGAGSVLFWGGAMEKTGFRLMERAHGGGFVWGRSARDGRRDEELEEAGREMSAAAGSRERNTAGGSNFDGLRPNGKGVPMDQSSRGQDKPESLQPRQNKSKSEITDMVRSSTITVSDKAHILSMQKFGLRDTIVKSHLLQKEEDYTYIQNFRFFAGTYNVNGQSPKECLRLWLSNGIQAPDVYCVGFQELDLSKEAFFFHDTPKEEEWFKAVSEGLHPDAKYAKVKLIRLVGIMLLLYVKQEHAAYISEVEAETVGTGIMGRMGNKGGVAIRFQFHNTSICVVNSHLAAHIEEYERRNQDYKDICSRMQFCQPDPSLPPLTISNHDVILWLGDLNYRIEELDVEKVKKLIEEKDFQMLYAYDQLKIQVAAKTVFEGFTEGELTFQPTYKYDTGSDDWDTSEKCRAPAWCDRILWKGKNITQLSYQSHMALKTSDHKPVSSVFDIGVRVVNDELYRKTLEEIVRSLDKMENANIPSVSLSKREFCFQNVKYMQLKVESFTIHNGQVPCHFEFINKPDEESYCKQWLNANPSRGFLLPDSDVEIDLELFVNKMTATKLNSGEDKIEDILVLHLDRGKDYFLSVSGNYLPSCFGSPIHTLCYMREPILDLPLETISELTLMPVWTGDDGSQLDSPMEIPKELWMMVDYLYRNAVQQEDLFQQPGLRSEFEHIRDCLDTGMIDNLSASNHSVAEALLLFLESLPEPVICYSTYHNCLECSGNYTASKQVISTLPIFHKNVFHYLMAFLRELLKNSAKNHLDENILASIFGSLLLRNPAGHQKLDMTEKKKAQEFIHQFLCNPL

For one test, the target named is Flag-N-PTEN (UniProt P60484). Description: co-IP; exogenous (transfected) INPP5B and exogenous PTEN in HEK293 cells; which was precipitated is not told.
For test [1], the target named is endogenous PTEN (A549 cells) (human (endogenous in A549)) (UniProt P60484). Description: co-IP; endogenous PTEN and endogenous INPP5B in A549 cells; a PTEN antibody (CST 9188s, 1:50) is listed for IP.

Results are given in words; binding and its absence hold for the method and conditions named. In cells and extracts the contact can be indirect. Some binding calls cover weakened binding; strength is not graded here.

As to “HA-tagged full-length human INPP5B (Inositol Polyphosphate-5-Phosphatase B) (from UniProt P32019 1-993) (enzyme)”, in the test with Flag-N-PTEN, the binding entry was “binds”.

“endogenous INPP5B (A549 cells) (from UniProt P32019 1-993) (enzyme)”: the binding entry in test [1] is “binds”.
